In PubChem BioAssay AID1347076 (National Center for Advancing Translational Sciences (NCATS), 2019):
Hit rate of the full screen: of about 400,000 compounds, about 13,000 (3.2%) were called active. The inconclusive results got no clear call from the source; some entries with a clear call stand among them for comparison. Calls come from the whole dose curve; as a rule, active = well fitted cell-killing curve with a large enough effect; inconclusive = small, poorly fitted or top-dose-only effect, or effect the other way; inactive = flat fitted curve, though single readings scatter. Potencies beside an inconclusive call are fits to weak or partial responses and may not hold up.

Assay: qHTS assay for MDR1-selective chemotherapeutics: Primary screen using the drug-selected MDR subline cells KB-V1; note: nearly all actives have a fitted effect of over 60% in size
Conditions: KB-V1 MDR cells viability, CellTiter-Glo, 72 h; activity change, negative = cytotoxicity: at 46.1 µM (top of the series)
Procedure, shortened: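 Drug-selected KB-V1 cells, grown in DMEM lacking phenol red with 10% FBS, receive compound titrations; after three days at 37 degrees C, surviving cell ATP is quantified by CellTiter-Glo luminescence and responses normalized and curve-fitted.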
% is set by controls: 0 for no effect and ±100 for the full control effect; potency is the fitted concentration of half-maximal effect.

Row | Structure (SMILES) | Potency | activity change, negative = cytotoxicity
1 | O=C1NC(=Nc2ccc(O)cc2)S/C1=C\C=C\c1ccco1 | active: 2.31 µM | 
2 | c1ccc(-c2noc(CSc3nnnn3C3CCCCC3)n2)cc1 | active: 18.4 µM | 
3 | COc1ccc(NS(=O)(=O)c2ccc(F)c(F)c2F)cc1S(=O)(=O)N1CCOCC1 |  | inactive: 9.59%
4 | COC(=O)c1c(C)[nH]c(C(=O)/C=C/c2ccc(C)cc2)c1C |  | inactive: -4.99%
5 | CCOc1ccc(-c2nnn(CC(=O)c3cc(OC)ccc3OC)n2)cc1 | active: 5.17 µM | 
6 | CCC(C)c1c(O)nc(SCC(=O)c2ccccc2)[nH]c1=O (centres undefined) | inconclusive: 29.1 µM [cytotoxic, single point] | 
7 | CC(C)OC(=O)c1cc2c(ccn2C)n1CC(=O)N(Cc1ccccc1)c1ccc(F)cc1 |  | inactive: -3.15%
8 | COc1cccc(OC)c1C(=O)Nc1nnc(-c2ccc(F)cc2)s1 | inconclusive: 3.26 µM [cytotoxic, partial curve, poor fit] | 
9 | CCN(CC)S(=O)(=O)c1ccc2c(c1)nc(CCC(=O)Nc1ccccc1Cc1ccccc1)n2CC | active: 20.6 µM | 
10 | COc1cccc(CN2CCC2(C)C(=O)Nc2cccc(Oc3ccccc3)c2)c1OC (centres undefined) | inconclusive: 9.2 µM [cytotoxic, partial curve] | 
11 | CCOC(=O)C1=C[C@@H](C(C)C)N(S(=O)(=O)c2ccc(C)cc2)[C@H]1c1ccc(C(F)(F)F)cc1 | inconclusive: 16.4 µM [cytotoxic, single point] | 
12 | CCCCC1Cc2[nH][nH]c(=O)c2C(c2ccc(Cl)cc2)O1 (centres undefined) |  | inactive: 11.1%
13 | CCOC(=O)C1CCN(C(=O)CN(c2cc(Cl)ccc2OC)S(=O)(=O)c2ccccc2)CC1 | inconclusive: 3.66 µM [cytotoxic, partial curve] | 
14 | O=C(NCc1cccc(C(F)(F)F)c1)N1CCN(C(=O)c2ccccc2)CC1 | inconclusive: 18.4 µM [cytotoxic, single point] | 
15 | Cc1cc(C(O)c2ncc(-c3ccccc3C)[nH]2)ccc1F (centres undefined) |  | inactive: 1.23%
16 | Cn1cc(CN2CCC(CO)(CCCc3ccccc3)CC2)c(-c2ccccc2)n1 | inconclusive: 8.2 µM [cytotoxic, partial curve] | 
17 | CC(C)Sc1oc(-c2ccco2)nc1S(=O)(=O)c1ccc(F)cc1 | inconclusive: 4.61 µM [cytotoxic, full curve] | 
18 | Cc1oncc1-c1csc(-c2ccccc2Cl)n1 | active: 13 µM | 
19 | CC(C)n1c(SCC(=O)Nc2nc3c(s2)CCCC3)nc2c1c(=O)n(C)c(=O)n2C | inconclusive: 20.6 µM [cytotoxic, single point] | 
20 | COc1ccc(C)cc1NC(=O)COCc1cc(-c2ccc(F)cc2)on1 |  | inactive: 8.12%
21 | COc1ccc(N2CCN(C(=O)CNC(=O)c3cn(-c4ccccc4OC)c(=O)c4ccccc34)CC2)cc1 | inconclusive: 20.6 µM [cytotoxic, partial curve, poor fit] | 
22 | COc1ccc(C2CC(=O)NC3=C2C(=O)CCC3)cc1Cl (centres undefined) | inconclusive: 16.4 µM [cytotoxic, single point] | 
23 | Cc1ccc(S(=O)(=O)N2CCOCC2)cc1NC(=O)CNCc1ccccc1Cl |  | inactive: 0%

Row | Structure (SMILES) | Potency | activity change, negative = cytotoxicity
24 | CC(=O)NC(c1ccc(C(C)C)cc1)c1ccc2cccnc2c1O (centres undefined) | inconclusive: 18.4 µM [cytotoxic, partial curve, poor fit] | 
25 | CCOC(=O)c1c(NC(=O)COC(=O)c2nccnc2N)sc(C(=O)N(C)C)c1C | inconclusive: 0.651 µM [rising, full curve, poor fit] | 
26 | O=C(N/N=C/c1cn(-c2ccccc2)nc1-c1cc2ccccc2o1)c1ccncc1 | inconclusive: 29.1 µM [cytotoxic, single point] | 
27 | CN(CC(=O)Nc1c(Cl)cccc1Cl)C(=O)c1cc(-c2cccs2)nn1-c1ccccc1 | active: 4.11 µM | 
28 | Cc1cccc(NNC(=S)Nc2ccccc2)c1 |  | inactive: -2.27%
29 | CS(=O)(=O)c1nc([N+](=O)[O-])nn1CCCc1ccccc1 | inconclusive: 29.1 µM [cytotoxic, single point] | 
30 | Cc1ccc(OCCNCc2ccccc2)c(C)c1 | inconclusive: 14.6 µM [cytotoxic, partial curve, poor fit] | 
31 | Cc1cccc(Cn2c(C(C)O)nc3ccccc32)c1 (centres undefined) | inconclusive: 20.6 µM [cytotoxic, partial curve] | 
32 | Cc1ccc(CN2CCC(c3cc(-c4cccs4)n[nH]3)CC2)cc1 | inconclusive: 7.31 µM [cytotoxic, partial curve] | 
33 | O=C(CCNS(=O)(=O)c1cccs1)N1CCN(c2ccc(F)cc2)CC1 | inconclusive: 29.1 µM [cytotoxic, single point] | 
34 | COc1ccccc1-c1cnc(C(O)c2c(C)cccc2C)[nH]1 (centres undefined) | inconclusive: 16.4 µM [cytotoxic, partial curve] | 
35 | O=C(Cn1nc(-c2ccccc2Cl)ccc1=O)Nc1ccccc1-c1ccccc1 | inconclusive: 18.4 µM [cytotoxic, single point] | 
36 | Cc1cccnc1C(NC(=O)C1CCN(CCOc2ccc(F)cc2)CC1)c1ccc(F)cc1 (centres undefined) | inconclusive: 2.31 µM [cytotoxic, full curve] | 
37 | CCOc1ccc(-c2nonc2NC(=O)c2oc3ccc(C)cc3c2C)cc1OCC |  | inactive: 4.56%
38 | CCC1(c2ccccc2)NC(=O)N(CC(=O)NC2CCCCCC2)C1=O (centres undefined) | inconclusive: 0.0082 µM [cytotoxic, full curve] | 
39 | CC(=O)c1ccc(NC(=O)C2=CC(c3ccc(C)cc3)=NS(=O)(=O)N2C)cc1 |  | inactive: -4.71%
40 | CCCn1cc(S(=O)(=O)c2ccc(OC)cc2)c(=O)c2cc(F)c(N3CCCC(C)C3)cc21 (centres undefined) | inconclusive: 20.6 µM [cytotoxic, single point] | 
41 | COc1ccc(-c2ccc(-c3noc(-c4ccccc4C)n3)c(OC)n2)cc1 |  | inactive: -3.57%
42 | O=C(Nc1ccc(OC(F)(F)F)cc1)c1ccc(-n2cncn2)nc1 | inconclusive: 29.1 µM [cytotoxic, single point] | 
43 | O=C(N/N=C/c1ccc(OCc2ccccc2)cc1)c1ccncc1 |  | inactive: 1.07%
44 | CCOc1cc(NC(=O)c2ccccn2)c(OCC)cc1NC(=O)CC(C)C | inconclusive: 3.26 µM [cytotoxic, partial curve] | 
45 | CCn1nc(C(=O)NCCc2ccc3c(c2)OCCO3)c2ccccc2c1=O | inconclusive: 29.1 µM [cytotoxic, single point] | 
46 | CCOC(=O)c1ccc(Nc2c(CC)c(C)nc3ncnn23)cc1 | active: 23.1 µM | 

Reformatted: results already given
Row	Structure (SMILES)	Potency	activity change, negative = cytotoxicity
24	CC(=O)NC(c1ccc(C(C)C)cc1)c1ccc2cccnc2c1O (centres undefined)	inconclusive: 18.4 µM [cytotoxic, partial curve, poor fit]	
30	Cc1ccc(OCCNCc2ccccc2)c(C)c1	inconclusive: 14.6 µM [cytotoxic, partial curve, poor fit]	
36	Cc1cccnc1C(NC(=O)C1CCN(CCOc2ccc(F)cc2)CC1)c1ccc(F)cc1 (centres undefined)	inconclusive: 2.31 µM [cytotoxic, full curve]	
38	CCC1(c2ccccc2)NC(=O)N(CC(=O)NC2CCCCCC2)C1=O (centres undefined)	inconclusive: 0.0082 µM [cytotoxic, full curve]	
42	O=C(Nc1ccc(OC(F)(F)F)cc1)c1ccc(-n2cncn2)nc1	inconclusive: 29.1 µM [cytotoxic, single point]	

Later entries

Row | Structure (SMILES) | Potency | activity change, negative = cytotoxicity
47 | CN(Cc1ccccc1)C(=O)COC(=O)c1cc2ccccc2oc1=O | inconclusive: 20.6 µM [rising, partial curve, poor fit] | 
48 | CCN(CC)c1ccc(/C=N/N=C(c2ccccc2)c2ccccc2)c(O)c1 | inconclusive: 10.3 µM [cytotoxic, partial curve, poor fit] | 
49 | O=C1c2ccccc2C(=O)N1CCCCSc1nnc(-c2ccc(OC(F)F)cc2)o1 | active: 3.26 µM | 
50 | O=C(NCCCN1CCN(c2ccccc2F)CC1)Nc1ccccc1[N+](=O)[O-] |  | inactive: -3.87%
51 | O=[N+]([O-])c1ccc(OCCCn2cncn2)cc1 | inconclusive: 25.9 µM [cytotoxic, partial curve, poor fit] | 
52 | Cc1ccc(C(=O)Nc2nc3nc(-c4ccccc4)cc(=O)n3[nH]2)cc1 | inconclusive: 20.6 µM [rising, partial curve, poor fit] | 
53 | CCCCn1c(N)c(N(CC(C)C)C(=O)c2c(-c3ccccc3)noc2C)c(=O)[nH]c1=O |  | inactive: 7.43%
54 | Cc1ccc(NC(=O)CSCC(=O)N(C)Cc2ccc(Cl)c(Cl)c2)cc1 | active: 18.4 µM | 
55 | c1ccc(-c2n[nH]c(-c3ccccn3)n2)nc1 | inconclusive: 23.1 µM [cytotoxic, single point] | 
56 | COc1ccc(CNC(=O)C(C)Sc2nc3ccccc3c(=O)n2CC2CCCO2)cc1 (centres undefined) | active: 5.8 µM | 
57 | O=C(CN1CCN(S(=O)(=O)c2ccccc2)CC1)NCCc1ccccc1 | inconclusive: 23.1 µM [cytotoxic, single point] | 
58 | O=C(c1ccco1)N(Cc1ccc([N+](=O)[O-])cc1)c1ccc(Cl)cc1 | inconclusive: 11.6 µM [cytotoxic, partial curve] | 
59 | COc1ccc(/C=C/C2=NNC(=O)CC2)cc1 | active: 0.411 µM | 
60 | Cc1ccc(NC(=O)COC(=O)c2ccc(S(=O)(=O)N3CCCCC3)cc2)cc1 | inconclusive: 20.6 µM [rising, single point] | 
61 | CCOc1cc(C(=O)Nc2ccc(S(=O)(=O)N3CCCCC3)cc2)ccc1OCC(=O)N1CCOCC1 | inconclusive: 9.2 µM [cytotoxic, partial curve, poor fit] | 
62 | O=C(Nc1ccccc1)c1cccnc1N1CCCC1 | inconclusive: 20.6 µM [cytotoxic, partial curve, poor fit] | 
63 | O=C(CSC1=NCCS1)N1N=C(c2cccs2)CC1c1ccc(F)cc1 (centres undefined) | inconclusive: 11.6 µM [cytotoxic, partial curve] | 
64 | C=CCSc1nc2ccccc2c(=O)n1Cc1ccccc1 | inconclusive: 16.4 µM [cytotoxic, single point] | 
65 | COc1ccc(C(=O)N(C)C2CCCCC2)cc1OC1CCN(C(C)C)CC1 | inconclusive: 16.4 µM [cytotoxic, single point] | 
66 | Cc1[nH]c(=O)[nH]c(=O)c1S(=O)(=O)N1CCCc2ccccc21 | inconclusive: 5.8 µM [rising, full curve] | 
67 | O=C(c1cc(-c2ccc3c(c2)OCO3)on1)N1CCOCC1 | inconclusive: 16.4 µM [cytotoxic, single point] | 
68 | O=c1c2c3c(sc2ncn1/N=C/c1ccc([N+](=O)[O-])o1)CCCC3 | active: 20.6 µM | 
69 | CC1(C)C=Cc2cc(-c3coc4cc(O)cc(O)c4c3=O)cc(O)c2O1 | inconclusive: 29.1 µM [rising, single point] | 
